PubChem BioAssay AID743121, NCATS | 2013

Screen: 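Genes whose silencing strengthens cell killing by camptothecin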 (primary screen)
System: MDA-MB-231 cells, a human breast cancer line
Knock-down reagent: single siRNA against human genes, 20 nM siRNA (0.8 pmol per well)
Time to read-out: 120 h (drug added 48 h after transfection, read 72 h later)
Challenge: camptothecin 20 nM (about EC30) for 72 h; vehicle 0.1% DMSO in parallel plates
Detection: 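Cell viability by ATP luminescence (CellTiter-Glo) as % of non-targeting siRNA wells, and the log2 ratio of viability without drug over viability with camptothecin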
Reading the numbers: log2 vehicle/camptothecin viability: higher = stronger sensitisation to camptothecin
Call rule: 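Each gene scored by redundant siRNA activity (RSA) over its individual siRNA ratios; a gene is called active at p < 0.001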
Here is an unselected part of about 26,000 deposited reagents. In the full data, 167 (0.63%) are marked active. 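Calls are per gene from RSA p-values that are not deposited; an individual active-marked siRNA can sensitise only weakly.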 The numbers tell different reagents against one gene apart. Not all columns of the deposit are shown.

no.	target gene	reagent	log2 vehicle/camptothecin viability	outcome
1	FKBP2	1	-0.182	inactive
2	FKBP2	2	0.503	inactive
3	FKBP2	3	0.105	inactive
4	FKBP2	4	0.018	inactive
5	IGFBP1	1	-0.547	inactive
6	IGFBP1	2	-0.268	inactive
7	IGFBP1	3	0.0542	inactive
8	ADIPOR1	1	-0.104	inactive
9	ADIPOR1	2	-0.411	inactive
10	ADIPOR1	3	-0.674	inactive
11	ADIPOR1	4	-0.416	inactive
12	KCNN2	1	-0.372	inactive
13	KCNN2	2	-0.262	inactive
14	KCNN2	3	-0.389	inactive
15	KCNN2	4	-0.496	inactive
16	KCNJ2	1	-0.101	inactive
17	KCNJ2	2	0.0582	inactive
18	KCNJ2	3	0.0427	inactive
19	KCNJ2	4	0.179	inactive
20	STAT5B	1	-0.121	inactive
21	STAT5B	2	-0.022	inactive
22	STAT5B	3	-0.35	inactive
23	STAT5B	4	-0.403	inactive
24	MBTPS2	1	-0.476	inactive
25	MBTPS2	2	-0.283	inactive
26	MBTPS2	3	0.1	inactive
27	MBTPS2	4	-0.331	inactive
28	BRD10	1	0.119	inactive
29	BRD10	2	-0.112	inactive
30	BRD10	3	-0.087	inactive
31	BRD10	4	-0.484	inactive

Not a retest: 3 of the entries above.
no.	target gene	reagent	log2 vehicle/camptothecin viability	outcome
19	KCNJ2	4	0.179	inactive
20	STAT5B	1	-0.121	inactive
21	STAT5B	2	-0.022	inactive
